Experimental data: patent US20210008047A1, “TARGETING MINIMAL RESIDUAL DISEASE IN CANCER WITH RXR ANTAGONISTS” (VIB VZW, priority 2018, published 2021)
At least one structure is not confirmed: it was looked up by name or label, or the drawing left a doubt.

System: MEL006 cells
Assay: FACS of GFRA2-positive (NDTC) cells in drug-exposed MEL006 cultures

## CNC(=O)c1ccc(Nc2ncc(C(F)(F)F)c(NCc3nccnc3N(C)S(C)(=O)=O)n2)cc1 [defactinib]
FAK inhibitor together with DT, dose-dependent
  Drug-dependent emergence of the GFRA2-high cell population: diminished
MEL006 cells treated with DT and or FAK inhibitors, then FACS sorted for GFRA2
  Sensitivity of GFRA2high cells to FAK inhibitors: sensitive
